According to patent US20070141625A1 (published 2007):
These are yes or no findings as the source states them, for the method shown. Some entries that bind do so weakly or less than the wild type.

Chains of the proteins cited; added tags and fusions are not shown. Residues count along the entry.
UniProt P04070, residues 43-461: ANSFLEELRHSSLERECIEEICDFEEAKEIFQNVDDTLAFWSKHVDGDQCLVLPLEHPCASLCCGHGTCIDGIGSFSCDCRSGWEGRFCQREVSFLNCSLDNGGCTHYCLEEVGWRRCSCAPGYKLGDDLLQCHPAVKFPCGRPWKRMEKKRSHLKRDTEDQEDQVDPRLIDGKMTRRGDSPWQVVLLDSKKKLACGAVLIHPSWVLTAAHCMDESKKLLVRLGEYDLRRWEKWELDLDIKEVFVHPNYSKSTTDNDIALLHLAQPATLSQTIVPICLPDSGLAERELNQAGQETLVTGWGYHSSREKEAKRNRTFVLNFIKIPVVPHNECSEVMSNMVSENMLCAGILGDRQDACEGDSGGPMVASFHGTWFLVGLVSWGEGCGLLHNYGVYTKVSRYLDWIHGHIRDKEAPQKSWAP

What was measured:
protein C (PC) [1] = target: protein C (PC) (UniProt P04070); experiment: inhibition of PC activation on endothelial cells by soluble rhsEPCR
protein C (PC) [2] = target: protein C (PC) (UniProt P04070); experiment: affinity column with immobilized rhsEPCR; PC eluted with EDTA (data not shown)

B1: recombinant human soluble EPCR (rhsEPCR) (receptor)
chain: SISQDASDGLQRLHMLQISYFRDPYHVWYQGNASLGGHLTHVLEGPDTNTTIIQLQPLQEPESWARTQSGLQSYLLQFHGLVRLVHQERTLAFPLTIRCFLGCELPPEGSRAHVFFEVAVNGSSFVSFRPERALWQADTQVTSGVVTFTLQQLNAYNRTRYELREFLEDTCVQYVQKHISAENTKGSQTSRSYTSAAASFLEQKLISEEDLNSAVDHHHHHH
notes: also called recombinant sEPCR; human recombinant EPCR in soluble form
With B1 the binding (protein C (PC) [1]) was “binds” and the binding (protein C (PC) [2]) was “binds”.
